Data from PubChem BioAssay AID1671190 (National Center for Advancing Translational Sciences (NCATS), 2021).
Values joined by “and” are separate entries in the source; they are usually repeats but may differ in a detail not shown here. Equal entries are not always repeated. About 6,100 (1.1%) of roughly 580,000 compounds were called active. The shares of active, inactive and inconclusive entries below differ from those in the screen. Calls follow the shape of the dose curve; as a rule, active = well fitted inhibition curve with a large enough effect; inconclusive = small, poorly fitted or top-dose-only effect, or another doubt; inactive = no such curve, though single readings can be large or run the other way. A potency beside an inconclusive call is a rough fit, not a confirmed value.

Chains of the proteins cited; added tags and fusions are not shown. Lines headed by an entry give the natural chain unless they say otherwise; changes in a name come on top.
UniProt P18054: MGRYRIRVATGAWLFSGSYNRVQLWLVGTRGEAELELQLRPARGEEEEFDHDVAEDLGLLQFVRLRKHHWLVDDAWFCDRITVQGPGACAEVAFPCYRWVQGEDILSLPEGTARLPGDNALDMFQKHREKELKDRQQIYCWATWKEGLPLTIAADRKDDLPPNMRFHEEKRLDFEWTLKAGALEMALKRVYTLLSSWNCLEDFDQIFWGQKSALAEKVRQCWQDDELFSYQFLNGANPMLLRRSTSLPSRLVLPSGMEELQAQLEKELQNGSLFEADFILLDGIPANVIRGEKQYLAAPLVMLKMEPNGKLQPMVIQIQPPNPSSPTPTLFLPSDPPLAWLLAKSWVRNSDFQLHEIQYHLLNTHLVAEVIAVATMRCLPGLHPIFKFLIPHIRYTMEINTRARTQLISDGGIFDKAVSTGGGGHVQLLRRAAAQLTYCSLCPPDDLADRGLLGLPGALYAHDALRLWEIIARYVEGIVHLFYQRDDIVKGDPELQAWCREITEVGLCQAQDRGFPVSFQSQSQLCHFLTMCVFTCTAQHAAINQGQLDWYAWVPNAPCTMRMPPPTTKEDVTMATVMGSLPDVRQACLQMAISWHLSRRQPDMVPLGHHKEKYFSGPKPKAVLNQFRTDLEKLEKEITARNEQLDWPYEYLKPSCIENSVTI

target: Polyunsaturated fatty acid lipoxygenase ALOX12 (Homo sapiens) (UniProt P18054); experiment: Primary qHTS assay for inhibitors of human arachidonate 12S-lipoxygenase (ALOX12): Round 2; details: purified 12hLO, xylenol orange hydroperoxide absorbance; activity change, negative = inhibition: at 108 µM (top of the series) unless noted
Method in brief: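 Hydroperoxide product was detected by ferrous iron/xylenol orange as the 573 to 405 nm absorbance ratio. Arachidonic acid at 40 uM (final) was turned over for 30 min at room temperature by 150 nM human 12hLO, pH 7.0 Hepes buffer, after 15 min compound preincubation.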
% is scaled to controls: 0 for no effect and ±100 for the full control effect; potency is read from the fitted curve at half-maximal effect.

Row | Structure (SMILES) | Potency | activity change, negative = inhibition
1 | Cc1cc(C)c(S(=O)(=O)NCCC(=O)Nc2nccs2)c(C)c1 | inconclusive: 35.5 µM [inhibitor, partial curve, poor fit] | –
2 | Cc1cc(C(=O)COC(=O)c2ccc(O)cc2O)c(C)n1-c1ccccc1 | inconclusive: 50.1 µM [inhibitor, partial curve, poor fit] | –
3 | CN(CCCNC(=O)c1ccccn1)CC(F)(F)F | inconclusive: 25.1 µM [inhibitor, partial curve, poor fit] | –
4 | CCOC(=O)c1oc2ccc(S(=O)(=O)Nc3ccc4c(c3)n(C)c(=O)n4C)cc2c1C | – | inactive: 9.84%
5 | O=C(CSc1nc2ccccc2c(=O)[nH]1)c1cccs1 | active: 6.31 µM | –
6 | COc1cc(C(C)=O)ccc1OCC(=O)Nc1ccccc1N1CCCC1 | inconclusive: 31.6 µM [inhibitor, single point] | –
7 | COc1ccc(C2C(C(C)=O)=C(O)C(=O)N2c2nccs2)cc1 (configuration not stated) | inconclusive: 28.2 µM [inhibitor, single point] | –
8 | O=C(Nc1ccc(Cl)c(S(=O)(=O)N2CCCCC2)c1)c1cnccn1 | inconclusive: 39.8 µM [inhibitor, single point] | –
9 | Cc1cc(=S)c2ccccc2[nH]1 | inconclusive: 39.8 µM [inhibitor, partial curve, poor fit] | –
10 | CN(C)CCNc1nc2c(c(=O)[nH]c(=O)n2C)n1CC(O)COc1ccc(Cl)cc1 (configuration not stated) | inconclusive: 14.1 µM [inhibitor, partial curve, poor fit] | –
11 | CN(C)c1ncc2nc(-c3ccccc3)c(=O)n(Cc3cccs3)c2n1 | inconclusive: 70.8 µM [inhibitor, single point] | –
12 | O=C(c1ccccc1)N1CCC2(C1)C(=O)N(CCc1ccccc1)c1ccccc12 (configuration not stated) | inactive | –
13 | O=C1NC[C@H](Cc2ccccc2)N(C[C@H]2CCCN2C[C@H](Cc2ccccc2)N2C[C@H](Cc3ccc(O)cc3)N(CCc3ccccc3)C(=O)C2=O)C1=O | inconclusive: 50.1 µM [inhibitor, partial curve, poor fit] | –
14 | COc1ccc(C(N)c2csc(Nc3ccc(C(=O)c4ccccc4)cc3)n2)cc1 (configuration not stated) | – | inactive: -8.41%
15 | COCCn1c(C)cc(C(=O)CSc2n[nH]c(N)n2)c1C | – | inactive: -15.7%
16 | O=C(Nc1cccc(-c2nnc3n2CCCC3)c1)c1ccoc1 | – | inactive: 12.7%
17 | CCCNC(=S)Nc1ccc(Nc2ccccc2)cc1 | inconclusive: 35.5 µM [inhibitor, partial curve, poor fit] | –
18 | COC(=O)CC[C@H]1CNC(=O)[C@@H]2[C@@H](CCN2S(C)(=O)=O)N1C | inconclusive: 1.12 µM [inhibitor, full curve, poor fit] | –
19 | Cc1ccccc1-n1c(=O)c2c3c(sc2n2cnnc12)CCCC3 | inactive and inconclusive: 79.4 µM [inhibitor, partial curve, poor fit] | –
20 | CC1=CCCC(C)(C)C1/C=C/C(C)=N\Nc1cc(C(F)(F)F)ccc1Cl (configuration not stated) | inconclusive: 17.8 µM [inhibitor, full curve] | –
21 | CC(CN1CCOCC1)C(=O)O (configuration not stated) | inconclusive: 5.62 µM [inhibitor, partial curve, poor fit] and inconclusive: 7.08 µM [inhibitor, partial curve, poor fit] | –
22 | Cc1no[n+]([O-])c1COc1ccc(/C=C2\NC(=S)NC2=O)cc1 | – | inactive: -6.42%
23 | COc1ccc(N=Nc2c(N)nn(C)c2N)cc1 | inconclusive: 112 µM [inhibitor, partial curve, poor fit] | –

Laid out differently: two of the compounds above
Row	Structure (SMILES)	Potency	activity change, negative = inhibition
16	O=C(Nc1cccc(-c2nnc3n2CCCC3)c1)c1ccoc1	–	inactive: 12.7%
20	CC1=CCCC(C)(C)C1/C=C/C(C)=N\Nc1cc(C(F)(F)F)ccc1Cl (configuration not stated)	inconclusive: 17.8 µM [inhibitor, full curve]	–

(cont.)

Row | Structure (SMILES) | Potency | activity change, negative = inhibition
24 | O=[N+]([O-])c1ccc(CN2[C@H](COCc3ccccc3)[C@@H](N3CCCC3)CS2(=O)=O)cc1 | inconclusive: 14.1 µM [inhibitor, full curve, poor fit] | –
25 | CNC1=CC(=O)CC(c2ccccc2)C1 (configuration not stated) | – | inactive: -7.64%
26 | CN1C(=O)c2cccn2CC1CNC(=O)c1ccoc1 (configuration not stated) | – | inactive: 46.7%
27 | Cc1cccc(N(C)C(=O)Cn2nc(-c3ccc(Br)cc3)ccc2=O)c1 | inconclusive: 79.4 µM [inhibitor, single point] | –
28 | CCOc1ccc(C(=O)CCC(=O)N(CC#N)C2CC2)cc1 | inconclusive: 44.7 µM [inhibitor, partial curve, poor fit] | –
29 | CNC(=O)c1ccc(NC(=O)c2nn(C(C)C)c(=O)c3ccccc23)cc1 | – | inactive: -4.69%
30 | CN(C)c1ccc(CC(=O)c2nc3ccccc3s2)cc1 | inconclusive: 35.5 µM [inhibitor, partial curve] | –
31 | COc1ccccc1N1CCN(Cc2ccc(Br)o2)CC1 | inconclusive: 0.447 µM [inhibitor, full curve, poor fit] | –
32 | O=S(=O)(c1ccc(F)cc1)N1CCC(n2c(C(F)(F)F)nc3cccnc32)CC1 | – | inactive: -17.2%
33 | Cc1ccnc2nc(C(=O)N3CCN(c4ccc(F)cc4)CC3)nn12 | inconclusive: 44.7 µM [inhibitor, partial curve, poor fit] | –
34 | Cc1cc2c(c(=O)n(-c3ccc(F)cc3)c(=O)n2CC(=O)Nc2cccc(C#N)c2)n1C | inconclusive: 79.4 µM [inhibitor, single point] | –
35 | CC1C(C#N)=C(SCC(N)=O)NC2=C1C(=O)CC(C)(C)C2 (configuration not stated) | – | inactive: 41.4%
36 | O=C(NCc1ccco1)c1cc([N+](=O)[O-])ccc1N1CCOCC1 | inconclusive: 31.6 µM [inhibitor, partial curve] | –
37 | O=C(O)c1ccc(CN2C[C@H](O)C[C@H]2c2nc(-c3ccccc3)no2)cc1 | inconclusive: 79.4 µM [inhibitor, partial curve, poor fit] | –
38 | COC(=O)c1ccc(Nc2ccc3nonc3c2[N+](=O)[O-])cc1 | – | inactive: 18.8%
39 | O=C1/C(=C/c2ccccc2F)CSc2ccccc21 | inconclusive: 35.5 µM [inhibitor, partial curve] | –
40 | CC(=O)N1CCC(N[C@@H]2CO[C@H](CNC(=O)c3cccs3)[C@H]2O)CC1 | – | inactive: 19% [at 176 µM]
41 | CCc1cccc(C)c1NC(=O)Cc1c[nH]c2ccccc12 | inconclusive: 5.01 µM [inhibitor, full curve, poor fit] | –
42 | O=C(NCCN1CCOC1=O)c1cn(Cc2ccccc2C(F)(F)F)nn1 | – | inactive: 33.6%
43 | CC(NC(=O)CC12CC3CC(CC(C3)C1)C2)c1ccncc1 (configuration not stated) | – | inactive: 12.7%
44 | CCOC(=O)c1cn(C)nc1S(=O)(=O)N1CCCC1 | inconclusive: 35.5 µM [inhibitor, single point] | –
45 | CCn1c(SCC(=O)Nc2ccccc2C(=O)OC)nnc1-c1ccoc1C | inconclusive: 89.1 µM [inhibitor, partial curve, poor fit] | –
46 | COc1cccc(Nc2sc(C(=O)c3ccc(F)cc3)c(N)c2C(=O)NCc2ccc(C)cc2)c1 | inconclusive: 31.6 µM [inhibitor, partial curve, poor fit] | –

Some of the entries so far, with each value named:
O=C1/C(=C/c2ccccc2F)CSc2ccccc21
  Potency: inconclusive: 35.5 µM [inhibitor, partial curve]
CCc1cccc(C)c1NC(=O)Cc1c[nH]c2ccccc12
  Potency: inconclusive: 5.01 µM [inhibitor, full curve, poor fit]

(further entries)

Row | Structure (SMILES) | Potency | activity change, negative = inhibition
47 | COc1ccc(C(=O)OCC[N+]2(C)CCCCC2)cc1 | inconclusive: 63.1 µM [inhibitor, partial curve, poor fit] | –
48 | COc1ccc2c(c1OC)C(=O)N1c3ccccc3N=C(c3ccc([N+](=O)[O-])cc3)CC21 (configuration not stated) | inconclusive: 44.7 µM [inhibitor, partial curve] | –
49 | CCCC[N+](CCCC)(CCCC)CCCC | active: 11.2 µM | –
50 | CC(=O)NC(Sc1ccc(Cl)cc1)C(=O)c1ccccc1 (configuration not stated) | inconclusive: 50.1 µM [inhibitor, partial curve, poor fit] | –
51 | CCN(CC)C(=O)Cn1c(=O)cc(C)c2c(C)nn(C)c21 | – | inactive: -4.1%
52 | CC(C)OCC(O)Cn1c(N2CCCCC2)nc2c1c(=O)[nH]c(=O)n2C (configuration not stated) | – | inactive: 0.987%
53 | CCCCNC(=O)C(Sc1ccccc1)c1ccccc1 (configuration not stated) | – | inactive: -10%
54 | Cc1cc(N2CCN(C)CC2)nc2ccc(NC(=O)c3ccc4c(c3)OCO4)cc12 | inconclusive: 44.7 µM [inhibitor, partial curve, poor fit] | –
55 | Cc1ccc(Cl)c(NC(=O)CCl)c1Cl | – | inactive: 0.632%
56 | COc1ccc(/C=C/C(=O)c2cc(F)ccc2OC(=O)c2ccccc2)cc1OC | – | inactive: 12.5%
57 | Cc1c(C(=O)Nc2ccc(F)c(F)c2)oc2ccc(S(=O)(=O)N(C)C3CCCCC3)cc12 | inconclusive: 100 µM [inhibitor, partial curve, poor fit] | –
58 | Cc1ccccc1NS(=O)(=O)c1ccc(C)c(C(=O)N(C)Cc2ccccc2)c1 | inconclusive: 39.8 µM [inhibitor, partial curve] | –
59 | CCOc1ccc(-c2cn3c(n2)sc2cc(C(=O)NCCCN(CC)CC)ccc23)cc1 | inconclusive: 112 µM [inhibitor, partial curve, poor fit] | –
60 | CCN(CC)CCn1c2c(c(SCC(=O)Nc3cccc(C(F)(F)F)c3)nc1=O)CCC2 | – | inactive: -18.7%
61 | COc1cccc(C(=O)OCC(=O)c2[nH]c(C)c(C(C)=O)c2C)c1 | inconclusive: 141 µM [inhibitor, partial curve, poor fit] | –
62 | CCOC(=O)CSc1nc2c(c(=O)[nH]c(=O)n2C)n1Cc1ccc(C)cc1 | inconclusive: 39.8 µM [inhibitor, partial curve, poor fit] | –
63 | O=C(Nc1ccc(F)cc1)C1CCCN(c2ncnc3c2nc2n3CCCCC2)C1 (configuration not stated) | inconclusive: 0.447 µM [inhibitor, full curve, poor fit] | –
64 | COc1ccc(C(=O)N[C@@H]2CN(Cc3cccnc3)C[C@H]2CN(C)C)c(OC)c1 | inconclusive: 70.8 µM [inhibitor, partial curve, poor fit] | –
65 | O=C(Nc1ccccc1SC(F)F)C1CCCCC1 | inconclusive: 44.7 µM [inhibitor, single point] | –
66 | Cc1cc(Nc2ccccc2Cl)n2nnnc2n1 | – | inactive: 3.03%
67 | COc1ccc(C(=O)Nc2ccc(C)c(S(=O)(=O)N3CCCCCC3)c2)cc1 | – | inactive: 0%
